Assay results reported in patent publication US20060188579A1, “Novel process” (priority 2003, published 2006).
Structures can show the parent of a compound that is named as a salt. Where two headings read alike, the source gives them in different places.

Legend:
[1] = Particle sizing, Example 3: hydrophobic vs hydrophilic drug precipitated without sonication; assay type: physicochemical; conditions: crystallised from a saturated methanol solution at 10° C., 15 minutes
Excerpt: The following sizing parameters were used (see table 2). [table] The procedure set out in example 1 was followed. […] The following parameters were used whilst undertaking precipitation (table 5). [table]

[2] = for Diameters dv(0.1) / Diameters dv(0.5) / Diameters dv(0.9): sonocrystallised 15 °C, 2 ml sat. methanol solution, precipitant acetonitrile, amplitude 100%, cycle 0.75
[3] = 'Volume of water (ml)' 50.0, filtered powder

## COc1ccc(CC(C)NCC(O)c2ccc(O)c(NC=O)c2)cc1 (stereo not shown) [formoterol, formoterol fumarate dihydrate]
[1]
  Diameters dv(0.1): 6.4 μm
  Diameters dv(0.5): 19.3 μm
  Diameters dv(0.9): 41.1 μm
[2]; 'Volume of water (ml)' 12.5
  Diameters dv(0.1): 4.76 μm
  Diameters dv(0.5): 11.85 μm
  Diameters dv(0.9): 24.18 μm
[2]; 'Volume of water (ml)' 25.0
  Diameters dv(0.1): 5.39 μm
  Diameters dv(0.5): 18.65 μm
  Diameters dv(0.9): 39.84 μm
[2]; 'Volume of water (ml)' 37.5
  Diameters dv(0.1): 3.65 μm
  Diameters dv(0.5): 12.35 μm
  Diameters dv(0.9): 31.84 μm
[2]; [3]
  Diameters dv(0.1): 4.39 μm
  Diameters dv(0.5): 13.22 μm
  Diameters dv(0.9): 30.33 μm
[2]; 'Volume of water (ml)' 62.5
  Diameters dv(0.1): 4.55 μm
  Diameters dv(0.5): 11.72 μm
  Diameters dv(0.9): 24.93 μm
[2]; volume of acetonitrile 50 ml, suspension sized straight after precipitation (with no filtration)
  dv(0.9): 11.16 μm
